From US12195506B2, “Immunotherapy with A*01 restricted peptides and combination of peptides against cancers and related methods” (Immatics Biotechnologies GmbH, priority 2018, dated 2025)

Test system: HLA molecules of primary tumors and normal tissue samples
Experiment: Identification and relative quantitation of HLA ligands by LC-MS (peptide presentation on tumor versus normal tissue)
Set-up: species or system human
Settings: for Peptide Presentation on cancer entities: cancer entities on which the peptide was found presented (HLA ligands, LC-MS), abbreviations as in title of Table 8; for presentation on various cancer entities: HLA ligands identified by LC-MS on tumor tissue samples

309 (EVDRNLIQY; listed as Homo sapiens) [compound 309]
Peptide Presentation on cancer entities: UEC

311 (TVTDGTHTDFY; listed as Homo sapiens) [compound 311]
Peptide Presentation on cancer entities: NSCLCsquam

312 (VTDGINPLI; listed as Homo sapiens) [compound 312]
Peptide Presentation on cancer entities: OSCAR

313 (VTDGTHTDFY; listed as Homo sapiens) [compound 313]
Peptide Presentation on cancer entities: MEL

314 (PPEANSLQGALY; listed as Homo sapiens) [compound 314]
Peptide Presentation on cancer entities: CCC, OC

316 (YTCEECGQAF; listed as Homo sapiens) [compound 316]
Peptide Presentation on cancer entities: BRCA, GBM, GC, HCC, HNSCC, NHL, NSCLCadeno, NSCLCsquam, OSCAR, PACA, UEC

317 (EDLLEVLDMY; listed as Homo sapiens) [compound 317]
Peptide Presentation on cancer entities: UEC

318 (YMTSMALNY; listed as Homo sapiens) [compound 318]
Peptide Presentation on cancer entities: NSCLCsquam

319 (FTDPHIITF; listed as Homo sapiens) [compound 319]
Peptide Presentation on cancer entities: BRCA

320 (QALQDKLQTFY; listed as Homo sapiens) [compound 320]
Peptide Presentation on cancer entities: BRCA

321 (DGIADASNLSYY; listed as Homo sapiens) [compound 321]
Peptide Presentation on cancer entities: MEL, NSCLCadeno, NSCLCsquam

322 (FSELNPLALY; listed as Homo sapiens) [compound 322]
Peptide Presentation on cancer entities: GC, HNSCC, NSCLCsquam, OSCAR

323 (KTLQKPVLPLY; listed as Homo sapiens) [compound 323]
Peptide Presentation on cancer entities: CLL

324 (RTGIFPYRF; listed as Homo sapiens) [compound 324]
Peptide Presentation on cancer entities: GBC

325 (LQKPVLPLY; listed as Homo sapiens) [compound 325]
Peptide Presentation on cancer entities: CLL, NSCLCsquam

326 (STSRLTLFS; listed as Homo sapiens) [compound 326]
Peptide Presentation on cancer entities: GBM, HNSCC

327 (IMLSVDQHLY; listed as Homo sapiens) [compound 327]
Peptide Presentation on cancer entities: HNSCC, MEL

329 (NTDSMTLNNTAY; listed as Homo sapiens) [compound 329]
Peptide Presentation on cancer entities: BRCA, GBC, HNSCC, NSCLCadeno, NSCLCsquam, OSCAR, UBC

331 (YLYQAPGSLALY; listed as Homo sapiens) [compound 331]
Peptide Presentation on cancer entities: NSCLCadeno

333 (LSDPQAELQFY; listed as Homo sapiens) [compound 333]
Peptide Presentation on cancer entities: GBM

334 (PSSMPECLSY; listed as Homo sapiens) [compound 334]
Peptide Presentation on cancer entities: NSCLCsquam

335 (PSSMPECLSYY; listed as Homo sapiens) [compound 335]
Peptide Presentation on cancer entities: NSCLCadeno

337 (FTESNQYNIY; listed as Homo sapiens) [compound 337]
Peptide Presentation on cancer entities: BRCA, MEL, NSCLCadeno, NSCLCsquam

338 (YSPDSFNVSW; listed as Homo sapiens) [compound 338]
Peptide Presentation on cancer entities: OSCAR

339 (ESMDIFPLGW; listed as Homo sapiens) [compound 339]
Peptide Presentation on cancer entities: HNSCC, OC, OSCAR

340 (SVDSNLVAY; listed as Homo sapiens) [compound 340]
Peptide Presentation on cancer entities: NSCLCadeno

341 (PANYLGKMTY; listed as Homo sapiens) [compound 341]
Peptide Presentation on cancer entities: MEL, NSCLCadeno, OC, PRCA

343 (YFGNYFTYY; listed as Homo sapiens) [compound 343]
Peptide Presentation on cancer entities: BRCA

344 (AVNALQSVY; listed as Homo sapiens) [compound 344]
Peptide Presentation on cancer entities: AML, GBC, GBM, GC, NSCLCadeno, NSCLCother, NSCLCsquam, OC, PACA, PRCA, UEC

346 (VAGLEAGVLY; listed as Homo sapiens) [compound 346]
Peptide Presentation on cancer entities: BRCA, GBM, HCC, MEL, OC, UBC, UEC

347 (SADHPGLTF; listed as Homo sapiens) [compound 347]
Peptide Presentation on cancer entities: CRC

350 (LTDPQVSYV; listed as Homo sapiens) [compound 350]
Peptide Presentation on cancer entities: MEL

351 (VLDPMLDFY; listed as Homo sapiens) [compound 351]
Peptide Presentation on cancer entities: HCC

352 (YPVVVAESMY; listed as Homo sapiens) [compound 352]
Peptide Presentation on cancer entities: MEL

355 (MADRGEARL; listed as Homo sapiens) [compound 355]
Peptide Presentation on cancer entities: AML

356 (NSENHILKY; listed as Homo sapiens) [compound 356]
Peptide Presentation on cancer entities: GC, OSCAR

358 (YMSPDIALLY; listed as Homo sapiens) [compound 358]
Peptide Presentation on cancer entities: GBM, HCC, NSCLCadeno

360 (RFDDINQEF; listed as Homo sapiens) [compound 360]
Peptide Presentation on cancer entities: HNSCC

363 (LTDRDVSFY; listed as Homo sapiens) [compound 363]
Peptide Presentation on cancer entities: HCC

364 (DTGYLQLYY; listed as Homo sapiens) [compound 364]
Peptide Presentation on cancer entities: BRCA

365 (FVDTKVPEH; listed as Homo sapiens) [compound 365]
Peptide Presentation on cancer entities: HCC, NHL, NSCLCsquam

366 (ITVDVRDEF; listed as Homo sapiens) [compound 366]
Peptide Presentation on cancer entities: GBM

367 (LTDTGYLQLY; listed as Homo sapiens) [compound 367]
Peptide Presentation on cancer entities: GBM, HNSCC, OC, OSCAR, UBC

369 (AVMEAAFVY; listed as Homo sapiens) [compound 369]
Peptide Presentation on cancer entities: BRCA

370 (RLSTIRHLY; listed as Homo sapiens) [compound 370]
Peptide Presentation on cancer entities: HNSCC, MEL

371 (WSDSTSQTIY; listed as Homo sapiens) [compound 371]
Peptide Presentation on cancer entities: OSCAR

372 (SRSDFEWVY; listed as Homo sapiens) [compound 372]
Peptide Presentation on cancer entities: BRCA, OSCAR

373 (FHADSDDESF; listed as Homo sapiens) [compound 373]
Peptide Presentation on cancer entities: NHL

375 (ASSLDSLHY; listed as Homo sapiens) [compound 375]
Peptide Presentation on cancer entities: BRCA

376 (EDDEDEDLY; listed as Homo sapiens) [compound 376]
Peptide Presentation on cancer entities: NSCLCsquam

378 (TAKAPSTEY; listed as Homo sapiens) [compound 378]
Peptide Presentation on cancer entities: GBC, NSCLCadeno, NSCLCother, NSCLCsquam

379 (SLIIDDTEY; listed as Homo sapiens) [compound 379]
Peptide Presentation on cancer entities: GBC, NSCLCsquam

380 (VACGNNPVY; listed as Homo sapiens) [compound 380]
Peptide Presentation on cancer entities: NSCLCadeno

382 (YEPATMEQY; listed as Homo sapiens) [compound 382]
Peptide Presentation on cancer entities: NSCLCsquam

383 (PPDHAVGRTKY; listed as Homo sapiens) [compound 383]
Peptide Presentation on cancer entities: UBC

384 (RFRSITQSYY; listed as Homo sapiens) [compound 384]
Peptide Presentation on cancer entities: CLL

385 (SANALILTY; listed as Homo sapiens) [compound 385]
Peptide Presentation on cancer entities: BRCA, MEL

388 (YTAHVGYSMY; listed as Homo sapiens) [compound 388]
Peptide Presentation on cancer entities: NSCLCadeno

390 (FSEPFHLIVSY; listed as Homo sapiens) [compound 390]
Peptide Presentation on cancer entities: CLL, MEL

392 (TQHFVQENY; listed as Homo sapiens) [compound 392]
Peptide Presentation on cancer entities: MEL

393 (QVWGGQPVY; listed as Homo sapiens) [compound 393]
Peptide Presentation on cancer entities: MEL

394 (QVPLDCVLY; listed as Homo sapiens) [compound 394]
Peptide Presentation on cancer entities: HNSCC, OSCAR

395 (ILKGGSGTY; listed as Homo sapiens) [compound 395]
Peptide Presentation on cancer entities: MEL

396 (LPDPNVQKY; listed as Homo sapiens) [compound 396]
Peptide Presentation on cancer entities: MEL

397 (NSAINPLIY; listed as Homo sapiens) [compound 397]
Peptide Presentation on cancer entities: NSCLCadeno, RCC, UEC

LSSAVNPIIY (listed as Homo sapiens) [SEQ ID No. 21]
presentation on various cancer entities: breast cancer and prostate cancer

WSDGVPLLY (listed as Homo sapiens) [SEQ ID No. 47]
presentation on various cancer entities: melanoma, non-small cell lung cancer, and ovarian cancer
